Laboratory results from PMC4172784.
Results are given in words; binding and its absence hold for the method and conditions named. In cells and extracts the contact can be indirect.

By UniProt entry, the sequences of proteins in these tests, tags left out. Where a name states a change or a piece, a line headed by the entry shows the natural chain unless it says otherwise. Chains listed by the source or under a name are the forms on record and can include a tag or linker.
UniProt P19563: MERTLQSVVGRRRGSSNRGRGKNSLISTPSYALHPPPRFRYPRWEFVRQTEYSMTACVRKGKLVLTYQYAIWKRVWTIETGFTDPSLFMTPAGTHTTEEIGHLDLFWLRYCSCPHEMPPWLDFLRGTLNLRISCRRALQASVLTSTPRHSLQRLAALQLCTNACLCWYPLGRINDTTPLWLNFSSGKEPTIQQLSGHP
Flag-tagged btCBF-β (VR-btCBF-β-flag) (E1B9S8, form named): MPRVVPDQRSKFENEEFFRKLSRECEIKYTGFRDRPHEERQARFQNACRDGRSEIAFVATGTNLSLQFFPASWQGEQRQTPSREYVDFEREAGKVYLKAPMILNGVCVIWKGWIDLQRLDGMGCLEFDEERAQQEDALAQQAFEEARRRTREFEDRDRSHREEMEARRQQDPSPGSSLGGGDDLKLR

Target: cmyc-tagged BIV Vif (VR-BIV Vif-cmyc) (bovine immunodeficiency virus (BIV BIM127)) (UniProt P19563)
Test: co-IP; 293T cells co-transfected with cmyc-tagged Vif and Flag-tagged CBF-β; lysate with anti-cmyc antibody 1 h, then Protein G-agarose, 4°C, 3 h; immunoblot with anti-cmyc and anti-Flag

In the case of “Flag-tagged btCBF-β (VR-btCBF-β-flag) (from UniProt E1B9S8 1-187)”, the binding is reported as “no binding”.
